{"source": "PubChem BioAssay AID743121, NCATS | 2013", "test": "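Partners whose loss is lethal together with topoisomerase I blockade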 (primary screen)", "cells": "MDA-MB-231 cells, a human breast cancer line", "knock-down reagent": "single siRNA against human genes, 20 nM siRNA (0.8 pmol per well)", "timing": "120 h (drug added 48 h after transfection, read 72 h later)", "challenge": "camptothecin 20 nM (about EC30) for 72 h; vehicle 0.1% DMSO in parallel plates", "detection": "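Cell viability by ATP luminescence (CellTiter-Glo) as % of non-targeting siRNA wells, and the log2 ratio of viability without drug over viability with camptothecin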", "direction": "log2 vehicle/camptothecin viability: higher = stronger sensitisation to camptothecin; viability with camptothecin: higher = more viable cells", "units": "viability with camptothecin in % of control", "active means": "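Each gene scored by redundant siRNA activity (RSA) over its individual siRNA ratios; a gene is called active at p < 0.001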", "note": "The whole screen tested about 26,000 reagents; this is a part drawn at random. In the full data, 167 (0.63%) got an active call. 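Calls are per gene from RSA p-values that are not deposited; an individual active-marked siRNA can sensitise only weakly.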 Reagents against one gene are numbered here. Further read-outs or replicates are left out here. Reagent sequences are not shown."}
The opening 5 records as a preview:
{"Target gene": "DUSP15", "siRNA no.": 1, "log2 vehicle/camptothecin viability": 0.128, "viability with camptothecin": 78.5, "outcome": "inactive"}
{"Target gene": "DUSP15", "siRNA no.": 2, "log2 vehicle/camptothecin viability": -0.128, "viability with camptothecin": 97.8, "outcome": "inactive"}
{"Target gene": "DUSP15", "siRNA no.": 3, "log2 vehicle/camptothecin viability": -0.512, "viability with camptothecin": 89.6, "outcome": "inactive"}
{"Target gene": "DUSP15", "siRNA no.": 4, "log2 vehicle/camptothecin viability": -0.138, "viability with camptothecin": 69.7, "outcome": "inactive"}
{"Target gene": "KIF19", "siRNA no.": 1, "log2 vehicle/camptothecin viability": 0.102, "viability with camptothecin": 56.8, "outcome": "inactive"}

Main list, repeating the preview:
{"Target gene": "DUSP15", "siRNA no.": 1, "log2 vehicle/camptothecin viability": 0.128, "viability with camptothecin": 78.5, "outcome": "inactive"}
{"Target gene": "DUSP15", "siRNA no.": 2, "log2 vehicle/camptothecin viability": -0.128, "viability with camptothecin": 97.8, "outcome": "inactive"}
{"Target gene": "DUSP15", "siRNA no.": 3, "log2 vehicle/camptothecin viability": -0.512, "viability with camptothecin": 89.6, "outcome": "inactive"}
{"Target gene": "DUSP15", "siRNA no.": 4, "log2 vehicle/camptothecin viability": -0.138, "viability with camptothecin": 69.7, "outcome": "inactive"}
{"Target gene": "KIF19", "siRNA no.": 1, "log2 vehicle/camptothecin viability": 0.102, "viability with camptothecin": 56.8, "outcome": "inactive"}
{"Target gene": "KIF19", "siRNA no.": 2, "log2 vehicle/camptothecin viability": 0.282, "viability with camptothecin": 50.6, "outcome": "inactive"}
{"Target gene": "KIF19", "siRNA no.": 3, "log2 vehicle/camptothecin viability": 0.162, "viability with camptothecin": 83.4, "outcome": "inactive"}
{"Target gene": "KIF19", "siRNA no.": 4, "log2 vehicle/camptothecin viability": 0.213, "viability with camptothecin": 64.5, "outcome": "inactive"}
{"Target gene": "BUB1", "siRNA no.": 1, "log2 vehicle/camptothecin viability": -0.17, "viability with camptothecin": 65.1, "outcome": "inactive"}
{"Target gene": "BUB1", "siRNA no.": 2, "log2 vehicle/camptothecin viability": -0.205, "viability with camptothecin": 104, "outcome": "inactive"}
{"Target gene": "BUB1", "siRNA no.": 3, "log2 vehicle/camptothecin viability": -0.784, "viability with camptothecin": 81.5, "outcome": "inactive"}
{"Target gene": "BUB1", "siRNA no.": 4, "log2 vehicle/camptothecin viability": -0.187, "viability with camptothecin": 112, "outcome": "inactive"}
{"Target gene": "POLM", "siRNA no.": 1, "log2 vehicle/camptothecin viability": -0.34, "viability with camptothecin": 86.2, "outcome": "inactive"}
{"Target gene": "POLM", "siRNA no.": 2, "log2 vehicle/camptothecin viability": -0.326, "viability with camptothecin": 57.7, "outcome": "inactive"}
{"Target gene": "POLM", "siRNA no.": 3, "log2 vehicle/camptothecin viability": -0.195, "viability with camptothecin": 72.6, "outcome": "inactive"}
{"Target gene": "ADGRG7", "siRNA no.": 1, "log2 vehicle/camptothecin viability": -0.164, "viability with camptothecin": 72, "outcome": "inactive"}
{"Target gene": "ADGRG7", "siRNA no.": 2, "log2 vehicle/camptothecin viability": 0.403, "viability with camptothecin": 59.6, "outcome": "inactive"}
{"Target gene": "ADGRG7", "siRNA no.": 3, "log2 vehicle/camptothecin viability": -0.366, "viability with camptothecin": 129, "outcome": "inactive"}
{"Target gene": "ADGRG7", "siRNA no.": 4, "log2 vehicle/camptothecin viability": -0.258, "viability with camptothecin": 88.2, "outcome": "inactive"}
{"Target gene": "NR2E1", "siRNA no.": 1, "log2 vehicle/camptothecin viability": 0.124, "viability with camptothecin": 76, "outcome": "inactive"}
{"Target gene": "NR2E1", "siRNA no.": 2, "log2 vehicle/camptothecin viability": -0.513, "viability with camptothecin": 36.3, "outcome": "inactive"}
{"Target gene": "NR2E1", "siRNA no.": 3, "log2 vehicle/camptothecin viability": -0.106, "viability with camptothecin": 60, "outcome": "inactive"}
{"Target gene": "NR2E1", "siRNA no.": 4, "log2 vehicle/camptothecin viability": -0.259, "viability with camptothecin": 104, "outcome": "inactive"}
{"Target gene": "ULK2", "siRNA no.": 1, "log2 vehicle/camptothecin viability": -0.289, "viability with camptothecin": 106, "outcome": "inactive"}
{"Target gene": "ULK2", "siRNA no.": 2, "log2 vehicle/camptothecin viability": -0.206, "viability with camptothecin": 97.2, "outcome": "inactive"}
{"Target gene": "ULK2", "siRNA no.": 3, "log2 vehicle/camptothecin viability": -0.519, "viability with camptothecin": 50.7, "outcome": "inactive"}
{"Target gene": "ULK2", "siRNA no.": 4, "log2 vehicle/camptothecin viability": -0.212, "viability with camptothecin": 43.2, "outcome": "inactive"}
{"Target gene": "TNFRSF1B", "siRNA no.": 1, "log2 vehicle/camptothecin viability": -0.325, "viability with camptothecin": 65.5, "outcome": "inactive"}
{"Target gene": "TNFRSF1B", "siRNA no.": 2, "log2 vehicle/camptothecin viability": -0.181, "viability with camptothecin": 75, "outcome": "inactive"}
{"Target gene": "TNFRSF1B", "siRNA no.": 3, "log2 vehicle/camptothecin viability": -0.039, "viability with camptothecin": 97.7, "outcome": "inactive"}
{"Target gene": "TNFRSF1B", "siRNA no.": 4, "log2 vehicle/camptothecin viability": 0.42, "viability with camptothecin": 24.6, "outcome": "inactive"}
{"Target gene": "RSKR", "siRNA no.": 1, "log2 vehicle/camptothecin viability": -0.0274, "viability with camptothecin": 87.7, "outcome": "inactive"}
{"Target gene": "RSKR", "siRNA no.": 2, "log2 vehicle/camptothecin viability": 0.323, "viability with camptothecin": 45.1, "outcome": "inactive"}
{"Target gene": "RSKR", "siRNA no.": 3, "log2 vehicle/camptothecin viability": -0.31, "viability with camptothecin": 25.6, "outcome": "inactive"}
{"Target gene": "RSKR", "siRNA no.": 4, "log2 vehicle/camptothecin viability": 0.0226, "viability with camptothecin": 93.7, "outcome": "inactive"}
{"Target gene": "APOBR", "siRNA no.": 1, "log2 vehicle/camptothecin viability": 0.205, "viability with camptothecin": 47.7, "outcome": "inactive"}
{"Target gene": "APOBR", "siRNA no.": 2, "log2 vehicle/camptothecin viability": -0.0667, "viability with camptothecin": 72.4, "outcome": "inactive"}
{"Target gene": "APOBR", "siRNA no.": 3, "log2 vehicle/camptothecin viability": -0.325, "viability with camptothecin": 76.3, "outcome": "inactive"}
{"Target gene": "APOBR", "siRNA no.": 4, "log2 vehicle/camptothecin viability": -0.307, "viability with camptothecin": 96, "outcome": "inactive"}
{"Target gene": "MAPK12", "siRNA no.": 1, "log2 vehicle/camptothecin viability": 0.785, "viability with camptothecin": 37.8, "outcome": "inactive"}
{"Target gene": "MAPK12", "siRNA no.": 2, "log2 vehicle/camptothecin viability": -0.481, "viability with camptothecin": 61.2, "outcome": "inactive"}
{"Target gene": "MAPK12", "siRNA no.": 3, "log2 vehicle/camptothecin viability": -0.198, "viability with camptothecin": 44.4, "outcome": "inactive"}
{"Target gene": "MAPK12", "siRNA no.": 4, "log2 vehicle/camptothecin viability": 0.382, "viability with camptothecin": 59.9, "outcome": "inactive"}
{"Target gene": "SHPK", "siRNA no.": 1, "log2 vehicle/camptothecin viability": 0.053, "viability with camptothecin": 90.7, "outcome": "inactive"}
{"Target gene": "SHPK", "siRNA no.": 2, "log2 vehicle/camptothecin viability": 0.237, "viability with camptothecin": 76.8, "outcome": "inactive"}
{"Target gene": "SHPK", "siRNA no.": 3, "log2 vehicle/camptothecin viability": 0.0832, "viability with camptothecin": 74.4, "outcome": "inactive"}
{"Target gene": "SHPK", "siRNA no.": 4, "log2 vehicle/camptothecin viability": -0.00501, "viability with camptothecin": 37.7, "outcome": "inactive"}
